Assay results reported in US10087194B2, “Podophyllotoxin derivatives and their use” (California Pacific Medical Center, priority 2015, dated 2018).
At least one compound was matched to its structure with a doubt left. Some entries share one result that the patent states for a list of compounds.

Key:
[1] = tested on: K562 human chronic myeloid leukemia xenograft; assay: Subcutaneous K562 human chronic myeloid leukemia xenograft model; settings: 300 mg/kg ip Days 8, 11, 14, by Day 21
[2] = tested on: HCT116 human colon cancer xenograft; assay: Subcutaneous HCT116 human colon cancer xenograft model; assay type: in vivo, Mus Musculus; settings: during the treatment period
Description: Each mouse was inoculated subcutaneously with 5×10^6 HCT116 tumor cells in 0.1 ml PBS for tumor development. Treatments were started when the tumor volume reached 100 mm^3. […] Body weight and tumor volume were measured twice a week.

In the case of `CCC1(OC(=O)COc2ccc(C(=O)OC3c4cc5c(cc4C(c4cc(OC)c(OC)c(OC)c4)C4C(=O)OCC34)OCO5)cc2)C(=O)OCc2c1cc1n(c2=O)Cc2cc3cc(OC(=O)N4CCC(N5CCCCC5)CC4)ccc3nc2-1.Cl` (centres unmarked) [Compound 801-HCl], the “CR ratio (ratio of complete regression)” value [1] is reported as 3 out 8 and the body weight loss [2] is reported as 4-6%.
